# ± gives the standard deviation of the averaged measurements. This is one part of the list.
# By UniProt entry, the sequences of proteins in these tests, tags left out. Where a name states a change or a piece, a line headed by the entry shows the natural chain unless it says otherwise.
# UniProt Q9NZJ7, whole entry: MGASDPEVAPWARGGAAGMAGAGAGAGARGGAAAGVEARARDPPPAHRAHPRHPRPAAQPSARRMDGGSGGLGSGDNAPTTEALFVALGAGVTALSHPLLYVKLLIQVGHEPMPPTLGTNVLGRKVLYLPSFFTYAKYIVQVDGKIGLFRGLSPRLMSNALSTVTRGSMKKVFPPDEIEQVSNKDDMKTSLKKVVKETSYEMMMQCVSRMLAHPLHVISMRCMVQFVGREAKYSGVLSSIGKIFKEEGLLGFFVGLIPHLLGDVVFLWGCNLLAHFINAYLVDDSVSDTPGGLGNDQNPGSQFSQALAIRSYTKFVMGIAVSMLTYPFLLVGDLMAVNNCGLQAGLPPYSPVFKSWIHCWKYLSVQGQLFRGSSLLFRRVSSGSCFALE
# UniProt Q9NV96: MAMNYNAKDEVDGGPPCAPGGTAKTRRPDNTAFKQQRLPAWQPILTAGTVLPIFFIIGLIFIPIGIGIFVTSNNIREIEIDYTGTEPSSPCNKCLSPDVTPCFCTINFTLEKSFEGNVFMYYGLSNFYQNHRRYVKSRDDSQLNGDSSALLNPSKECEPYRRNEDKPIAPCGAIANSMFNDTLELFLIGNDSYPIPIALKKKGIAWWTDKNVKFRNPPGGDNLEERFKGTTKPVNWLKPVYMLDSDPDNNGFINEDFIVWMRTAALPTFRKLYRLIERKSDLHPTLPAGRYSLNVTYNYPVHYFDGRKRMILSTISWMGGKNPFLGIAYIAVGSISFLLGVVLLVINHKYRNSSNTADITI
# UniProt Q9NVH2, whole entry: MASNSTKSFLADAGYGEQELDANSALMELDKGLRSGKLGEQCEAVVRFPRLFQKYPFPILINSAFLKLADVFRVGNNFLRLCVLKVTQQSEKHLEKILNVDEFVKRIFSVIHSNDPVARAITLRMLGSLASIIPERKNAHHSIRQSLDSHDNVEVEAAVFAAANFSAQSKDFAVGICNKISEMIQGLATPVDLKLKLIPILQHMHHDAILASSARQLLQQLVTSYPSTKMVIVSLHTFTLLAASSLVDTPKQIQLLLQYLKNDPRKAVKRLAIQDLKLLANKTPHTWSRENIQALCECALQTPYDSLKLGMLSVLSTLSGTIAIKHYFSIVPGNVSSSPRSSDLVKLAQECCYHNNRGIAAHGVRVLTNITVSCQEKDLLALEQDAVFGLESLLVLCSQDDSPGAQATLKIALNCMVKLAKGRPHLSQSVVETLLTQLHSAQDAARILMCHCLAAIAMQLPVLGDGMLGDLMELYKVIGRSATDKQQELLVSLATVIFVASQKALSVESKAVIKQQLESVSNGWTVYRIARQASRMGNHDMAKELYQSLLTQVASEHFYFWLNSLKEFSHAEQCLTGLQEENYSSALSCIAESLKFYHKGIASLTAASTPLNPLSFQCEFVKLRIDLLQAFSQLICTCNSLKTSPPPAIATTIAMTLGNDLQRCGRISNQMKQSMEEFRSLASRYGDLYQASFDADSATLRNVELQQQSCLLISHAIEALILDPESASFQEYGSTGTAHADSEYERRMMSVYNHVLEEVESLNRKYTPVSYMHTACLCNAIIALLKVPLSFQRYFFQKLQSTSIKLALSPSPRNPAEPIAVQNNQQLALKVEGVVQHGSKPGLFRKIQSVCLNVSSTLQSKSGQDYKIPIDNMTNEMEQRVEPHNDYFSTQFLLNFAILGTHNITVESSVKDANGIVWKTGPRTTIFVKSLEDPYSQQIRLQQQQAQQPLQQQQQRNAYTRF
# UniProt Q9NXF7, whole entry: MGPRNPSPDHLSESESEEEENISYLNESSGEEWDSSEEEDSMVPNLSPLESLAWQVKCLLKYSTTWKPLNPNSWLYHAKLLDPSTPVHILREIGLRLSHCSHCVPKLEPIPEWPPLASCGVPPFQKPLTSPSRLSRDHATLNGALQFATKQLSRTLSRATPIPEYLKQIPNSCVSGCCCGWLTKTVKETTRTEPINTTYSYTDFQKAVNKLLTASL
# UniProt Q9P219: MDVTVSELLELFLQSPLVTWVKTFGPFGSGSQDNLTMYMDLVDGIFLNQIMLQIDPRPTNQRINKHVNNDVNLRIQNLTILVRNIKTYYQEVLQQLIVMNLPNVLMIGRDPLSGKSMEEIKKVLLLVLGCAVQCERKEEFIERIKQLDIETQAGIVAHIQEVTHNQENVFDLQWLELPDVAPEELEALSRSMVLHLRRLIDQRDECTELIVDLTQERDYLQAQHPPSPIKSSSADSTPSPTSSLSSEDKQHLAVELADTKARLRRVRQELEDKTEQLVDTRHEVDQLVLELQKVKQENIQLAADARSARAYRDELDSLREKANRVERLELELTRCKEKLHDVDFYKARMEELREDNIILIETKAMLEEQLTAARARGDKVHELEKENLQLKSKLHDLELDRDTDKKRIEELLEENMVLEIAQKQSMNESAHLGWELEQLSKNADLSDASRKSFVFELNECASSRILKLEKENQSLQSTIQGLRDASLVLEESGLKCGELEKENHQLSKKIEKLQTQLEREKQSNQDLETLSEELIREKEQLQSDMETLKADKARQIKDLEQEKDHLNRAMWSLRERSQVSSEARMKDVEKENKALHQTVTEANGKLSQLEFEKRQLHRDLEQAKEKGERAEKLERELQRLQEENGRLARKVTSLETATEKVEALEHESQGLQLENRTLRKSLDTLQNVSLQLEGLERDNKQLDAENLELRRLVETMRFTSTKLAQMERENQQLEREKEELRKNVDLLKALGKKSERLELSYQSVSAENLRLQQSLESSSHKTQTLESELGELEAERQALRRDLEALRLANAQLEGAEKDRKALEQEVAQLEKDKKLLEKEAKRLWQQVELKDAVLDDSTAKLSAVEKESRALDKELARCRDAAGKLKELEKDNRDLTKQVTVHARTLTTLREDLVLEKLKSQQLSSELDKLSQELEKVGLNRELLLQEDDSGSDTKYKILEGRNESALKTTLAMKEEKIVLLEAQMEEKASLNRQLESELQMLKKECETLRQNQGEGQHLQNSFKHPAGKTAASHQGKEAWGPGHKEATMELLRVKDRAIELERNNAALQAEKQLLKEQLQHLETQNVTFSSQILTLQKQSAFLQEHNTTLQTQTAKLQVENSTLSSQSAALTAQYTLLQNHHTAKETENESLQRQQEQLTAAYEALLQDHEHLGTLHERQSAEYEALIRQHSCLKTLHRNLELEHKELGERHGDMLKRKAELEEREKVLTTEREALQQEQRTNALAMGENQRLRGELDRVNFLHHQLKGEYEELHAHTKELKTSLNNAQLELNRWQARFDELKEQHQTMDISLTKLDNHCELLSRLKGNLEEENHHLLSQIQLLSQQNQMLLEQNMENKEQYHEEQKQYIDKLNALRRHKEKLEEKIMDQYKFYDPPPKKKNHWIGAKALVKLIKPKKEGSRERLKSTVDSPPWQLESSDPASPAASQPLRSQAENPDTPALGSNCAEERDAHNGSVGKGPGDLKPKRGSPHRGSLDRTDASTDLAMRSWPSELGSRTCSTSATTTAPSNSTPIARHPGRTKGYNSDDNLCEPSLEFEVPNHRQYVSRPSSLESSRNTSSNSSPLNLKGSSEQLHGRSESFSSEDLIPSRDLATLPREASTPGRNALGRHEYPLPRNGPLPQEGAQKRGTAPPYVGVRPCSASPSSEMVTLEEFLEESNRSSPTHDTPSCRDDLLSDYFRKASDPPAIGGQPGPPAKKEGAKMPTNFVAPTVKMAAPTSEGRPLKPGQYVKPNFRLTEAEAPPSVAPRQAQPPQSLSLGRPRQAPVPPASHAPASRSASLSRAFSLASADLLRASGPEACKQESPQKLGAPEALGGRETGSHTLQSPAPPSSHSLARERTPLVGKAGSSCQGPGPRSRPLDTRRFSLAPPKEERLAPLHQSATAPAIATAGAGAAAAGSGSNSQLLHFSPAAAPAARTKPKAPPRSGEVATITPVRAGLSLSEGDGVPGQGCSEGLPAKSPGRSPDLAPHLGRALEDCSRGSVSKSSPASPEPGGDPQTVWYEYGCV
# UniProt Q9UKK3: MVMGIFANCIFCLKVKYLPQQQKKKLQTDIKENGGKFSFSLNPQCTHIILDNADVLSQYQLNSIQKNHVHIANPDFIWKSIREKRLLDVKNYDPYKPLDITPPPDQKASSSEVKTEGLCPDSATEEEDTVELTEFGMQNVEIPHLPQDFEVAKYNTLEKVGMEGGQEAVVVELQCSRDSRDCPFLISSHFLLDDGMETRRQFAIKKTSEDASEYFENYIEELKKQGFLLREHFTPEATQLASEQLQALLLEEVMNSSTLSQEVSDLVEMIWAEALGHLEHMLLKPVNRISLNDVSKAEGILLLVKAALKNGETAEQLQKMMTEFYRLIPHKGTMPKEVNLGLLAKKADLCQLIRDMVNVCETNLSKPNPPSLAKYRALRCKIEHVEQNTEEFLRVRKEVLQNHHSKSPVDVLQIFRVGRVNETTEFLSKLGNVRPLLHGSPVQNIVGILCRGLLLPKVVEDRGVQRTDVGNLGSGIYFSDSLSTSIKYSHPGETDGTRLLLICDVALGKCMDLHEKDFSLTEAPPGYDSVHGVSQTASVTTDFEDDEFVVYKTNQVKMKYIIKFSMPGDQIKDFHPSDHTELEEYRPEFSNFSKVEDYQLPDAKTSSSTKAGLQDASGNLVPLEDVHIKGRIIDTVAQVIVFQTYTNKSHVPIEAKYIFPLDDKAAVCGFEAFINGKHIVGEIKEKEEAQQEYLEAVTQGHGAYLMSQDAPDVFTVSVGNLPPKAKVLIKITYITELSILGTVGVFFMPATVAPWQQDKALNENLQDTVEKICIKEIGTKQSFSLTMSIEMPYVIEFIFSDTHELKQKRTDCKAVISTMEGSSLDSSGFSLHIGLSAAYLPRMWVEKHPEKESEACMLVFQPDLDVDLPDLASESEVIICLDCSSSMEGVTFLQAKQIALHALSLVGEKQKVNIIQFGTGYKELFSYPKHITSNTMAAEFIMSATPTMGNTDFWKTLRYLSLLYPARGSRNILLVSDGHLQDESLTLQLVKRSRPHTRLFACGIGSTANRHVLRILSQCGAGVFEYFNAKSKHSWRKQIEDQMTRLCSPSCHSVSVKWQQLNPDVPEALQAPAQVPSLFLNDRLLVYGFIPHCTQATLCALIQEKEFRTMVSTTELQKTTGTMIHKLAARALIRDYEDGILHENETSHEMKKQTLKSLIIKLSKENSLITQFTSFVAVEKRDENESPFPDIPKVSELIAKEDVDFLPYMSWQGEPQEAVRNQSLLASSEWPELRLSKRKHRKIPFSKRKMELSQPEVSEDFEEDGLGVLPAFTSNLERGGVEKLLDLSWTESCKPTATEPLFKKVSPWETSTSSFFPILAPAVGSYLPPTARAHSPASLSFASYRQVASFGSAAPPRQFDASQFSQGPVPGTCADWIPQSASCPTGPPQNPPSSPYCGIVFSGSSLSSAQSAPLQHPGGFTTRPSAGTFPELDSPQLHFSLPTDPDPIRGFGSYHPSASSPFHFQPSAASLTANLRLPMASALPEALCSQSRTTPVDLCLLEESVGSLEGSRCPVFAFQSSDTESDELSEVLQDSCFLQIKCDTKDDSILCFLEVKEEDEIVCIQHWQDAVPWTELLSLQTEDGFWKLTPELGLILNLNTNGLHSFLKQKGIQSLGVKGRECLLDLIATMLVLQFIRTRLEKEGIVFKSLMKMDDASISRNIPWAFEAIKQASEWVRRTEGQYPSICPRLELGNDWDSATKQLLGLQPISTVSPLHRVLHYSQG
# UniProt Q9NYP7: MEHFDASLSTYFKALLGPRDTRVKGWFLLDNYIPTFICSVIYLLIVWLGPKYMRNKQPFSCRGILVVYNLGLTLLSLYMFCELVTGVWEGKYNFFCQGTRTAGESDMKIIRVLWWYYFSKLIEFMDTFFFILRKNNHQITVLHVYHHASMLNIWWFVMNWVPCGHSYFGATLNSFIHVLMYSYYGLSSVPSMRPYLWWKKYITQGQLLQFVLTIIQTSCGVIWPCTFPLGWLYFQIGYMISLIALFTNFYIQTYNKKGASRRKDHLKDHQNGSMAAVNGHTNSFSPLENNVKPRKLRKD
# UniProt Q9UJX3, whole entry: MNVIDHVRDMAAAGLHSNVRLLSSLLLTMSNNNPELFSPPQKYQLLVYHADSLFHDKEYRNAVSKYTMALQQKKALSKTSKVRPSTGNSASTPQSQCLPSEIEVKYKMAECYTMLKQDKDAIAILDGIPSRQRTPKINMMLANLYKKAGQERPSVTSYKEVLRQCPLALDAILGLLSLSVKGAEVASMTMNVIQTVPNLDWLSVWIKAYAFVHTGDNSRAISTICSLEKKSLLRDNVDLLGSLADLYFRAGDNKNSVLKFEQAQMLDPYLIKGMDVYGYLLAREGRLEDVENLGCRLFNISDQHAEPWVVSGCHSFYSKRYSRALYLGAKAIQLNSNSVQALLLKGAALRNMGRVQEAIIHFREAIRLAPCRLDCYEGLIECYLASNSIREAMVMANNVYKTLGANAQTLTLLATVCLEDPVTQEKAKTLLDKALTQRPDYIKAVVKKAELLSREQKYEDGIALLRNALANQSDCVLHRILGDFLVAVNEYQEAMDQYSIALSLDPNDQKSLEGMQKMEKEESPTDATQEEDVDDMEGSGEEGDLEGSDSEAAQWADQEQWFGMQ
# Compound: Nc1nc2c(ncn2[C@@H]2O[C@H](COP(=O)(O)OP(=O)(O)OP(=O)(O)O)[C@@H](O)[C@H]2O)c(=O)[nH]1 [guanosine triphosphate]
# Assay: NP40-soluble protein abundance relative to vehicle (solubility fold change) (ratio); higher = more soluble protein in presence of GTP
# Outline: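 Jurkat crude lysate prepared with a Dounce homogeniser was treated at eight concentrations spanning 0.1 to 10 mM, 10 min at room temperature then 3 min at 37 °C. Solubilisation with 0.8% NP40 and benzonase and ultracentrifugation preceded TMT labelling of the supernatant for LC-MS/MS. Fold change against the detergent-processed vehicle was determined per replicate from vsn-normalised intensities, across three independent experiments.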
Target,NP40-soluble protein abundance (concentration: 0.1mM),NP40-soluble protein abundance (concentration: 0.5mM),NP40-soluble protein abundance (concentration: 1mM),NP40-soluble protein abundance (concentration: 2mM),NP40-soluble protein abundance (concentration: 4mM),NP40-soluble protein abundance (concentration: 6mM),NP40-soluble protein abundance (concentration: 8mM),NP40-soluble protein abundance (concentration: 10mM)
UniProt Q9UBK8 and related entries,0.969 ± 0.064,1.04 ± 0.1,0.929 ± 0.024,0.974 ± 0.069,0.95 ± 0.047,0.993 ± 0.085,0.932 ± 0.042,0.976 ± 0.072
UniProt Q9NZJ7 and related entries,1.01 ± 0.087,0.963 ± 0.11,0.976 ± 0.078,0.984 ± 0.13,0.938 ± 0.07,0.969 ± 0.084,1.03 ± 0.12,0.938 ± 0.051
UniProt Q9P260 and related entries,0.984 ± 0.054,0.9732 ± 0.0063,1.04 ± 0.021,0.981 ± 0.034,1.05 ± 0.072,1.03 ± 0.012,1.042 ± 0.0015,0.942 ± 0.032
UniProt Q9P0U4 and related entries,1.03 ± 0.031,1.08 ± 0.072,1.046 ± 0.0026,1.1 ± 0.078,1.09 ± 0.02,1.09 ± 0.089,1.1 ± 0.052,1.07 ± 0.029
UniProt Q9UIS9 and related entries,0.98 ± 0.054,0.955 ± 0.069,1.09 ± 0.014,1.05 ± 0.046,1.08 ± 0.037,1.06 ± 0.068,1.07 ± 0.082,1.11 ± 0.048
UniProt Q9P0I2,1.02 ± 0.03,1.04 ± 0.026,1.02 ± 0.04,1.03 ± 0.063,1 ± 0.046,1.01 ± 0.039,0.982 ± 0.014,0.971 ± 0.023
IMPAD1 (UniProt Q9NX62),0.98 ± 0.07,0.949 ± 0.061,0.956 ± 0.07,0.863 ± 0.065,0.883 ± 0.081,0.875 ± 0.079,0.924 ± 0.086,0.865 ± 0.073
TMEM30A (UniProt Q9NV96),1.03 ± 0.033,0.992 ± 0.021,1.04 ± 0.082,1.01 ± 0.018,1.02 ± 0.019,0.935 ± 0.052,1.01 ± 0.09,0.979 ± 0.023
KCTD5 (UniProt Q9NXV2),0.981 ± 0.032,0.964 ± 0.027,0.973 ± 0.021,0.95 ± 0.041,0.96 ± 0.052,0.996 ± 0.025,0.958 ± 0.031,0.938 ± 0.042
UniProt Q9NXH9 and related entries,1.02 ± 0.026,0.954 ± 0.03,0.989 ± 0.088,0.941 ± 0.03,0.963 ± 0.024,0.92 ± 0.018,0.956 ± 0.045,0.932 ± 0.052
UniProt Q9UKV3-3|S4R3H4,0.964 ± 0.039,1.01 ± 0.049,1.14 ± 0.065,1.09 ± 0.03,1.03 ± 0.14,1.03 ± 0.13,1.06 ± 0.19,1.12 ± 0.22
UniProt Q9NVH2 and related entries,1.09 ± 0.051,1.01 ± 0.046,1.09 ± 0.09,1.13 ± 0.14,1.2 ± 0.13,1.15 ± 0.15,1.18 ± 0.15,1.16 ± 0.14
UniProt Q9UBP0 and related entries,1.09 ± 0.052,1.07 ± 0.081,1.02 ± 0.043,1.01 ± 0.054,0.974 ± 0.034,0.977 ± 0.058,0.979 ± 0.069,0.975 ± 0.069
YEATS2 (UniProt Q9ULM3),1.05 ± 0.057,1.13 ± 0.1,1.13 ± 0.2,1.17 ± 0.29,1.12 ± 0.2,1.14 ± 0.2,1.11 ± 0.17,1.18 ± 0.23
UniProt Q9NYP9,0.995 ± 0.047,1.02 ± 0.028,0.935 ± 0.053,0.944 ± 0.027,0.907 ± 0.035,0.956 ± 0.03,0.949 ± 0.052,0.948 ± 0.088
UniProt Q9ULH7-4|Q9ULH7-5,0.946 ± 0.017,0.977 ± 0.044,0.982 ± 0.049,0.954 ± 0.059,0.927 ± 0.041,0.945 ± 0.059,0.966 ± 0.037,0.987 ± 0.033
ZMYM2 (UniProt Q9UBW7),1.07 ± 0.065,1.09 ± 0.066,1.04 ± 0.053,1.11 ± 0.11,1.16 ± 0.13,1.14 ± 0.089,1.22 ± 0.19,1.16 ± 0.14
POGK (UniProt Q9P215),1.18 ± 0.16,1.018 ± 0.0049,1.13 ± 0.095,1.03 ± 0.054,1 ± 0.023,1.06 ± 0.084,1.03 ± 0.054,0.965 ± 0.035
UniProt Q9P0K8 and related entries,0.907 ± 0.056,0.873 ± 0.053,0.931 ± 0.067,0.884 ± 0.053,0.887 ± 0.14,0.869 ± 0.077,0.901 ± 0.17,0.783 ± 0.15
UniProt Q9NXF7,1 ± 0.18,0.98 ± 0.17,1.04 ± 0.13,1.01 ± 0.12,0.968 ± 0.12,0.968 ± 0.12,0.977 ± 0.14,1.04 ± 0.14
CCDC88C (UniProt Q9P219),1.02 ± 0.018,0.991 ± 0.025,1 ± 0.067,0.972 ± 0.068,0.932 ± 0.079,0.942 ± 0.046,0.964 ± 0.028,0.941 ± 0.062
PARP4 (UniProt Q9UKK3),1.17 ± 0.18,1.11 ± 0.16,1.12 ± 0.2,1.18 ± 0.093,1.23 ± 0.16,1.17 ± 0.091,1.09 ± 0.14,1.44 ± 0.15
AFF4 (UniProt Q9UHB7),1.05 ± 0.035,1 ± 0.026,1.026 ± 0.007,1.06 ± 0.013,1.07 ± 0.056,1.05 ± 0.059,1.09 ± 0.075,1.08 ± 0.08
UniProt Q9NYP7 and related entries,1.07 ± 0.022,1.06 ± 0.054,0.894 ± 0.082,0.917 ± 0.088,0.897 ± 0.065,0.917 ± 0.079,0.87 ± 0.063,0.817 ± 0.063
ARGLU1 (UniProt Q9NWB6),1.05 ± 0.024,1.13 ± 0.062,1.3 ± 0.092,1.27 ± 0.063,1.3 ± 0.072,1.43 ± 0.062,1.62 ± 0.06,1.64 ± 0.05
UniProt Q9UG22,0.919 ± 0.029,1.01 ± 0.1,0.81 ± 0.058,0.926 ± 0.013,0.8467 ± 0.0037,0.92 ± 0.078,0.809 ± 0.012,0.925 ± 0.043
UniProt Q9NWK9 and related entries,1.05 ± 0.065,1.06 ± 0.02,1.13 ± 0.085,1.13 ± 0.1,1.1 ± 0.082,1.12 ± 0.091,1.18 ± 0.15,1.15 ± 0.17
ANAPC7 (UniProt Q9UJX3),1.01 ± 0.083,1.02 ± 0.045,1.08 ± 0.06,1.07 ± 0.12,1.11 ± 0.12,1.1 ± 0.12,1.14 ± 0.15,1.13 ± 0.19
C9orf78 (UniProt Q9NZ63),0.863 ± 0.051,0.823 ± 0.039,0.961 ± 0.077,0.924 ± 0.083,0.905 ± 0.083,0.937 ± 0.11,0.932 ± 0.097,0.975 ± 0.075
UniProt Q9UKA9 and related entries,1.04 ± 0.021,0.985 ± 0.025,1.01 ± 0.014,0.989 ± 0.045,0.947 ± 0.051,0.955 ± 0.036,0.963 ± 0.029,0.906 ± 0.027

# Quoted from the entries so far (two entries):
Target,NP40-soluble protein abundance (concentration: 0.1mM),NP40-soluble protein abundance (concentration: 0.5mM),NP40-soluble protein abundance (concentration: 1mM),NP40-soluble protein abundance (concentration: 2mM),NP40-soluble protein abundance (concentration: 4mM),NP40-soluble protein abundance (concentration: 6mM),NP40-soluble protein abundance (concentration: 8mM),NP40-soluble protein abundance (concentration: 10mM)
UniProt Q9UBK8 and related entries,0.969 ± 0.064,1.04 ± 0.1,0.929 ± 0.024,0.974 ± 0.069,0.95 ± 0.047,0.993 ± 0.085,0.932 ± 0.042,0.976 ± 0.072
UniProt Q9NZJ7 and related entries,1.01 ± 0.087,0.963 ± 0.11,0.976 ± 0.078,0.984 ± 0.13,0.938 ± 0.07,0.969 ± 0.084,1.03 ± 0.12,0.938 ± 0.051
